We go through one sequence from patent US20170038365.

Sequences of proteins named here, by UniProt entry; tags and fusion partners are left off.
UniProt O15527, whole entry: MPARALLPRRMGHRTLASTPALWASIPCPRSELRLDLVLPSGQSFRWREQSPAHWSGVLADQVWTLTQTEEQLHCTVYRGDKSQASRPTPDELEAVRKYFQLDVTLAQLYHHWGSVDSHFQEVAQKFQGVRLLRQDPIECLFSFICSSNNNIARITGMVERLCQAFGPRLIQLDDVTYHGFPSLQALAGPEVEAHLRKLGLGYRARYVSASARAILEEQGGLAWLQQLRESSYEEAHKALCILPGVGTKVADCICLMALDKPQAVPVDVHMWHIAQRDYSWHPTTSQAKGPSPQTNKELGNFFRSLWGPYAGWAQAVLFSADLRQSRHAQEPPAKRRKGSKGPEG

Series [1] deals with T1, Fpg (Escherichia coli) (UniProt P05523).
T1 sequence (looked up, limits assumed): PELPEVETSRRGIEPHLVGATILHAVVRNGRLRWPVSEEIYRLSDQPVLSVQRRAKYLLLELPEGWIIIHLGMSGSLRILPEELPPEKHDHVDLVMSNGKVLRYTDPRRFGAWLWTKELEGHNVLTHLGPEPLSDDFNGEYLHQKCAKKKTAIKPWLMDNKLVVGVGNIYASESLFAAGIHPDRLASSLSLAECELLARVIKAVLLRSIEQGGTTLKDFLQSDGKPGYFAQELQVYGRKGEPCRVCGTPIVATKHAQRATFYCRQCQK
The series can be described thus: enzyme reaction in vitro. Particulars: n is 8-oxo-guanine; complement SEQ:2 appears printed 3'-5' [6 (8-oxo-guanine)]; 37 C 10 min, 25 nM substrate; OGG1 inhibitors IC50 >50 uM; purified recombinant protein; protein details: New England Biolabs; letters built from the parent sequence and the stated change.

The target in series [2] is OGG1 (8-oxoguanine DNA glycosylase-1) (Homo sapiens) (UniProt O15527). Kind of series: enzyme reaction in vitro. The note with it: n is 8-oxo-guanine; complement SEQ:2 appears printed 3'-5' [6 (8-oxo-guanine)]; 20 mM Tris-HCl, 100 mM KCl, 0.1% BSA, 0.01% Tween-20, pH 7.5, 37 C; inhibited by hydrazides; purified recombinant protein; protein details: His-tag, expressed in bacteria, Ni-NTA purified; letters built from the parent sequence and the stated change.

For some assays here: Where a protein sequence is shown, tags need not be part of it.

On to “TCACCGTCGTACGACTC (double strand) [8-oxo-Gua 17-mer duplex]”, for which the “activity on this sequence” value in series [1] and in series [2] was “active” throughout.
